The values below come from PMC6758689.

Protein sequences, listed by entry. Tags and fused reporters are not part of them.
UniProt O14818: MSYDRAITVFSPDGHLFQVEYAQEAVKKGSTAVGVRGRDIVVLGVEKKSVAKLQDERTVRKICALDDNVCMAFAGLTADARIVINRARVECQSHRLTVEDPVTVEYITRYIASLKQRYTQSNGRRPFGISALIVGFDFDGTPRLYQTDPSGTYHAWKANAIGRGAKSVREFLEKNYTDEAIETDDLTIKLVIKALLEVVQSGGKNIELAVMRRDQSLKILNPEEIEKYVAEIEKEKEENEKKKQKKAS
UniProt Q92922: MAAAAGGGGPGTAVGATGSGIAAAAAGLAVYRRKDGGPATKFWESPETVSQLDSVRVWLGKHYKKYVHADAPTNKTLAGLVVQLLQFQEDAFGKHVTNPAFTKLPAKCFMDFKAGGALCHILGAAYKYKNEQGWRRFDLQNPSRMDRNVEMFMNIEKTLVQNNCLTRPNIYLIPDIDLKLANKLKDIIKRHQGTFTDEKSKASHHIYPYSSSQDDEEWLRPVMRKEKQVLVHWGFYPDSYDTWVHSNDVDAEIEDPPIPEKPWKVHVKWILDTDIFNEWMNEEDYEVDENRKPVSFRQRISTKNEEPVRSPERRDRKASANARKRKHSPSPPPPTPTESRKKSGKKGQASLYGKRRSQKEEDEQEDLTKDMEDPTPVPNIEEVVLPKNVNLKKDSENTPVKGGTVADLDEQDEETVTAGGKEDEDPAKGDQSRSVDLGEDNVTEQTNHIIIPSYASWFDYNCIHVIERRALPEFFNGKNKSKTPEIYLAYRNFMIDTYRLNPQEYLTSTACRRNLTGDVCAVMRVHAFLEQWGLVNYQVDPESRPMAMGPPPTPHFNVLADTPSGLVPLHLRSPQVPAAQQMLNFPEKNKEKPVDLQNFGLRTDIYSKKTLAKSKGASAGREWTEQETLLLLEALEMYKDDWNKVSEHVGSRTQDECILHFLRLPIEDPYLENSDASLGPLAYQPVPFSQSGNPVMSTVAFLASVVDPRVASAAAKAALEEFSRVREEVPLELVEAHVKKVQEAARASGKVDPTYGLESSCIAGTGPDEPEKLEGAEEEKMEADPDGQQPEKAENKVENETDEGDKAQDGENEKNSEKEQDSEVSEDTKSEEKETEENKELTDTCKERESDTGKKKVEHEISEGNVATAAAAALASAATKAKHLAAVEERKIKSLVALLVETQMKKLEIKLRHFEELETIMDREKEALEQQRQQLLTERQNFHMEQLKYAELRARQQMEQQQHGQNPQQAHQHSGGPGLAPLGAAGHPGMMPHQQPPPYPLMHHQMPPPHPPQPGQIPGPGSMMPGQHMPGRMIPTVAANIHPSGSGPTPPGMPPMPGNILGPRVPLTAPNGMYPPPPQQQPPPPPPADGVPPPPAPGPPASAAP

Assay [1] deals with proteasomal subunit PSMA7 (human (endogenous in Huh7)) (UniProt O14818). The assay can be described thus: co-IP; precipitated with anti-BAF155 and blotted for PSMA7, and vice versa (Figure 5B).
The target of assay [2] is endogenous BAF155 (human (endogenous in Huh7)) (UniProt Q92922). The description is as above.

These are yes or no findings as the source states them, for the method shown. Binding seen in cells or lysates may run through a third protein.

Take “endogenous BAF155 (from UniProt Q92922 1-1105)”: the binding entry in assay [1] is reported as “no binding”. For the substance “proteasomal subunit PSMA7 (from UniProt O14818 1-248)”, in assay [2], the binding result is “no binding”.
